Patent US20070249630A1, “Phenethanolamine derivatives for treatment of respiratory diseases” (GLAXO GROUP LIMITED, priority 2002, published 2007)
Some of these results come from one statement about several compounds together.

Protein sequences, listed by entry. Tags and fused reporters are not part of them.
UniProt P07550, whole entry: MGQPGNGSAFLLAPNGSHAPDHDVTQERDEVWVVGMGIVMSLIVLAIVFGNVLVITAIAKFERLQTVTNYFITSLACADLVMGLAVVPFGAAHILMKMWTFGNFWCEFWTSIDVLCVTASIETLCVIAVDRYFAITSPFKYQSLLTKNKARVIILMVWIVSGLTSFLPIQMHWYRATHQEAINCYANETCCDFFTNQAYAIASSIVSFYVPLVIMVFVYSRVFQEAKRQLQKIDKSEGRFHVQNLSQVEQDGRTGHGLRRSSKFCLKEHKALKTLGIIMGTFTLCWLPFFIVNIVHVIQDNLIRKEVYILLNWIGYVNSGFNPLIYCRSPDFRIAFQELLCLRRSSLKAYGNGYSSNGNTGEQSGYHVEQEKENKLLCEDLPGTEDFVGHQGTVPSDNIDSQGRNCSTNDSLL

Target: T1, human beta 2 adrenoreceptor (Homo sapiens, UniProt P07550)
T1 construct: expressed in transfected cells; host or cells: frog melanophores
Test: Frog melanophores transfected with the human beta 2 adrenoreceptor; pigment dispersal (light transmittance)
Assay type: cell-based
Conditions: frog melanophores transfected with human beta 2 adrenoreceptor, melatonin-induced pigment aggregation; read-out: IC50 at the human beta 2 adrenoreceptor (beta 2 agonist activity)

IC50, < 1 µM:
NC(=O)Nc1cc(CCCCOCCCCCCNC[C@H](O)c2ccc(O)c(CO)c2)cc(C(F)(F)F)c1 [Example 28, N-[3-(4-{[6-({(2R)-2-Hydroxy-2-[4-hydroxy-3-(hydroxymethyl)phenyl]ethyl}amino)hexyl]oxy}butyl)-5-(trifluoromethyl)phenyl]urea acetate]
CCNC(=O)NCc1cccc(CCCCOCCCCCCNC[C@H](O)c2ccc(O)c(CO)c2)c1 [Example 17, N-Ethyl-N′-[3-(4-{[6-({(2R)-2-hydroxy-2-[4-hydroxy-3-(hydroxymethyl)phenyl]ethyl}amino)hexyl]oxy}butyl)benzyl]urea acetate]
Cc1ccc(NC(=O)Nc2cccc(CCCCOCCCCCCNC[C@H](O)c3ccc(O)c(CO)c3)c2)cc1 [Example 3, N-[3-(4-{[6-({(2R)-2-Hydroxy-2-[4-hydroxy-3-(hydroxymethyl)phenyl]ethyl}-amino)hexyl]oxy}butyl)phenyl]-N′-(4-methylphenyl)urea acetate]
O=C(Nc1cccnc1)Nc1cccc(CCCCOCCCCCCNC[C@H](O)c2ccc(O)c(CO)c2)c1 [Example 13, N-[3-(4-{[6-({(2R)-2-Hydroxy-2-[4-hydroxy-3-(hydroxymethyl)phenyl]ethyl}amino)hexyl]oxy}butyl)phenyl]-N′-pyridin-3-ylurea acetate]
O=C(NCc1cccc(CCCCOCCCCCCNC[C@H](O)c2ccc(O)c(CO)c2)c1)NC1CCCCC1 [Example 16, N-Cyclohexyl-N′-[3-(4-{[6-({(2R)-2-hydroxy-2-[4-hydroxy-3-(hydroxymethyl)phenyl]ethyl}amino)hexyl]oxy}butyl)benzyl]urea acetate]
O=C(NC(=O)C(=O)O)Nc1cccc(CCCCOCCCCCCNC[C@H](O)c2ccc(O)c(CO)c2)c1 [Example 34, [({[3-(4-{[6-({(2R)-2-Hydroxy-2-[4-hydroxy-3-(hydroxymethyl)phenyl]ethyl}amino)hexyl]oxy}butyl)phenyl]amino}carbonyl)amino](oxo)acetic acid]
NC(=O)Nc1cccc(CCCCCOCCCCCNC[C@H](O)c2ccc(O)c(CO)c2)c1 [Example 26, N-[3-(5-{[5-({(2R)-2-Hydroxy-2-[4-hydroxy-3-(hydroxymethyl)phenyl]ethyl}amino)pentyl]oxy}pentyl)phenyl]urea acetate]
